The values below come from PubChem BioAssay AID1347423 (Functional Genomics Laboratory (NCATS/FGL), 2020).

The whole screen tested about 52,000 sequences, of which about 210 (0.4%) were called active.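 The calls were made as follows: active = gene whose silencing raises cell survival under the drug, median off-target-corrected z-score across its silencing RNAs 2 or more; inactive = the rest.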 This is one part of the list.

The assay can be described thus: Resistance to Poly (ADP-Ribose) Polymerase inhibitor: Gene Identification via Genome-wide siRNA Screen. The settings on record: mouse BRCA2 R2336H ES cells, olaparib, CellTiter-Glo viability; stronger effect = higher value. In a few lines: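 Mouse BRCA2 R2336H ES cells were reverse-transfected with siRNA (20 nM final), treated at 48 h with 500 nM olaparib, and read by CellTiter-Glo after 72 h. Scores: MAD-based z per siRNA, median per gene, seed off-target correction.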
Background: Cellular ATP, detected with luciferase, serves as a proxy for viable cell number.
With GGAGAAGGGCUUUUCUGUUTT against Gbp5, the z-score is inactive: -0.875.

For GCAGAGAGAUACAUUAAAGTT against Adam10, the z-score is inactive: 0.478.

On to GGCAUUUAUUAUCAGGCUGTT against Pes1, for which the z-score is inactive: -1.46.

As for GGGAAGCCUUUCUUGUCAGTT against V1rb7, the z-score was inactive: -0.659.

With GCAAAAAACAGGGUAACUCTT against Cacna1d, the z-score was inactive: -0.338.

In the case of GGUUCAUGUGUGCACAGCUTT against Ehd1, the z-score was inactive: 0.627.

Regarding GCUAUGACUCCAACAUGCGTT against Gm638, the z-score was inactive: 1.49.

As for GCUCAACAGAUCAUGCCACTT against Tapbpl, the z-score was inactive: 0.3.

Take “GCUCAUUCUUACCAAUCUCTT against 2210413P10Rik”: the z-score was inactive: -0.897.

As to GGAACUUCACAGGAACUCUTT against Nol4, the z-score is inactive: -0.104.

For CGUGCCCAAGAAUGCCCUUTT against Actr5, the z-score was inactive: 0.294.

Regarding CCUACAGAGUACCCUGUCUTT against LOC237891, the z-score is inactive: -0.766.

Take GGCAGUGAAUUCAACCGCATT against Gtf2f1: the z-score was inactive: -1.46.

As for GGCAGAUCGAAGAGAACAATT against Prlpc2, the z-score is inactive: -1.33.

Take GGCUUUGAGCAUGUUUUCATT against Hspb7: the z-score is inactive: -0.569.

Turning to GAACCCAGAUCUGCACAACTT against Sox17, the z-score is inactive: -1.07.

For CCUAUUGAAUUGACCCUAATT against Muc20, the z-score is inactive: -1.8.

With “CGAGGUUGAAGAUCUCUAUTT against 5730421E18Rik”, the z-score is inactive: 1.2.

For “CGACUACCACACGUGGAAUTT against 0610039P13Rik”, the z-score was inactive: 0.691.

Turning to CCAGUCAUCAUGCUACACGTT against Slc19a3, the z-score was inactive: 0.651.

GCAAAACGAUGACUCGGAGTT against Lhx4: the z-score is inactive: 0.126.

For “GGCUAUUCCGCAUUCUACGTT against 1110057K04Rik”, the z-score was inactive: 0.47.

Regarding GGUCCUUAGGUGACCUCCUTT against Lrrc20, the z-score is inactive: 0.274.

As to GGAUAUCGUUGUUUCUGAGTT against Lmbr1, the z-score is inactive: -0.52.

With GGGCAUAAAAUCAUUGCCUTT against Tigd4, the z-score was inactive: -1.16.

As to GGCUGGGUAAAACCCAUCATT against Idh1, the z-score is inactive: 1.28.

On to “GCUGAUUCGGCUUAUGAUCTT against A330080J22Rik”, for which the z-score was inactive: -0.286.

With GGUAGACAACUGGAUAAAUTT against Gpnmb, the z-score was inactive: -0.115.

Turning to GCGAGUCAUACCAAUUAGATT against Htf9c, the z-score was inactive: -0.219.

Turning to GGCUCUAACAGCUACAUGUTT against Hspb7, the z-score is inactive: 0.614.

For GGGCAAGAAAUCAAGGUUUTT against Krtap3-2, the z-score is inactive: -0.675.

Regarding GAUCUGGUAUGUUUGUGACTT against Olfr1414, the z-score was inactive: 0.519.

With GGACCAAAAGGAAAAUCCATT against Kcnj6, the z-score is inactive: 0.118.

As for GGACAAUUGCCUUUUGACATT against Thbs3, the z-score was inactive: -0.207.

As for GGAGUUUGGGACCCUACUUTT against Mllt7, the z-score is inactive: -0.581.

For the sequence GAAUCAUGAUAGAAUGCAUTT against AI987944, the z-score was inactive: 1.32.

Regarding “GGCAAAGCCAAAAGAAAUATT against B230380D07Rik”, the z-score is inactive: 0.00605.

Regarding CGGCGAGUUCACAUUUCUGTT against Il1rl1l, the z-score was inactive: -0.544.

Turning to GGGAAAACAGCCCUUUCAUTT against Slc12a7, the z-score was inactive: -0.171.

On to GCGAGGUGUCUCUAUCAACTT against Mrpl11, for which the z-score is inactive: 1.4.

With GUUUGAUGUCUGUCUAACATT against Olfr608, the z-score is inactive: -0.215.

For the sequence GUCAGAUGAUUCUAUUCUCTT against Rps21, the z-score was inactive: -2.72.

With GCCGCUACACAUCAAACCATT against Zc3hdc3, the z-score was inactive: -1.49.

With GGCUCUAUGAGUCUACCUATT against Cdx1, the z-score is inactive: 0.68.

On to GCACUCCUUCGAUUUAAUCTT against AI505034, for which the z-score is inactive: -0.939.

For “GGAAGUUUGUUUGCUGUUATT against 2210009G21Rik”, the z-score was inactive: 2.5.

With GAGGGUGUGCAUUCUUCUATT against Olfr1242, the z-score was inactive: -0.348.

Regarding GGGAUUCAUAAGGAGAAAATT against Tm4sf2, the z-score is inactive: -0.67.

With GGACAAAGAUAAAGAAGAUTT against Lsp1, the z-score is inactive: -1.25.

As to CCAGAAGUUAGAACAGUUCTT against Rp9h, the z-score is inactive: -1.13.

Take GGUGAUUGAGUUGGAGAGGTT against Nkx3-1: the z-score is inactive: -0.427.

For GCAUGAUCCAGCUUUCUAGTT against Bard1, the z-score was inactive: -2.24.

For the sequence GCAGCGAUGUACAAUCCAATT against Opn5, the z-score was inactive: 1.04.

For GGAUGAAGAUACGAUUGAUTT against Sumo2, the z-score was inactive: -1.5.

Consider GGUUCAGUCAGUCAGUAUCTT against Srst, for which the z-score was inactive: -0.639.

Take GGCUGUGGAUCUCCUAUCATT against Ibrdc2: the z-score was inactive: -0.338.

As to GCAAGUGCCUAGAGUCUCATT against Crat, the z-score was inactive: -0.969.

As to GGAAGUCUCUUAGACUACCTT against Fbxo36, the z-score is inactive: -0.143.

Take CCUGCUCUAGAGAAGAAGUTT against Apoa1bp: the z-score is inactive: -1.27.

With GCUGAAAACUGCUUGCUCCTT against Onecut3, the z-score was inactive: 0.229.

“GGCGACAUGUACAAUGACUTT against 0610012D09Rik”: the z-score was inactive: 0.674.

Turning to “GGAUAUCUAAUGUUAGAAGTT against E130304F04Rik”, the z-score is inactive: -0.4.

As for “GGAUUCUUACCCAACUUUUTT against C330046L10Rik”, the z-score was inactive: 0.653.

For GGAAAAAUAGCAUACCGAATT against Bphl, the z-score is inactive: 0.313.

For the sequence GGCGAUCUUUGGAAUUAGATT against Ing3, the z-score was inactive: 1.17.

On to CGGGACAUUAGUCAUUAAATT against Pcdha5, for which the z-score was inactive: 1.55.

For GCCGAAGAGAUCAACACCATT against Onecut3, the z-score was inactive: -0.28.

On to GGGUUAAAGCGGUUUACUUTT against Kcng3, for which the z-score was inactive: 0.348.

For the sequence GGUCUACAUUGAUCCUUUUTT against Ephb4, the z-score was inactive: 0.0136.

As for GGAAUCUGAAUUUUUGUGUTT against Commd1, the z-score is inactive: 0.407.

Turning to GCCGUUUUACAAAAGCUUUTT against Ches1, the z-score is inactive: -0.0824.

GCUUAGAAAUGUGAUCCAUTT against Rex2: the z-score was inactive: 0.656.

For GGCUUCUUCUUCCUUUUUATT against Sra1, the z-score is inactive: 1.5.

As for GGGAAUGUCUGACUUCCAGTT against Gtf3c5, the z-score is inactive: -2.58.

With CCCAUUUAGACUAGUUUAATT against Hsf2, the z-score is inactive: -0.171.

With GGAUGUUCAGCAAUCCCUGTT against Rnf121, the z-score is inactive: 0.6.

With “GCUUGACUUGGUAUGUUUATT against 9030624L02Rik”, the z-score was inactive: 1.31.

In the case of GGGCUUCAUAAUCACCUUCTT against Rad51c, the z-score was inactive: -1.74.

Consider “GCGAUCCUCUCUACUUAACTT against 6430537H07Rik”, for which the z-score was inactive: 0.432.

GGGAAACAGACUUUUUUUATT against Arid3a: the z-score is inactive: 0.697.

On to “GGAACUGGAAUCAAGACCATT against 1200011M11Rik”, for which the z-score is inactive: 1.16.

GCGGGACUCAAACAAAAGUTT against Trip4: the z-score was inactive: -0.208.

Consider “GCCAAGAGGACUUACUCUCTT against A530081L18Rik”, for which the z-score is inactive: -0.639.

Regarding “GGAGGCUUAUCCUAAAAAGTT against 6330444E15Rik”, the z-score was inactive: 0.256.

In the case of GGCAUGGAAGGCUUUAAUUTT against Gad1, the z-score is inactive: 0.393.

Consider GGAAGAAUGAAGAAGUAAUTT against Cacng3, for which the z-score was inactive: 0.0762.

GGGCCUAGACCGUAUCUUCTT against Kcnj12: the z-score was inactive: 0.13.

For “GGAAAGCUUGGACAUUAAGTT against B130003F20Rik”, the z-score was inactive: 0.0915.

As for GGGAUUUGGUCAGCUAACCTT against Acp2, the z-score was inactive: 2.58.

For the sequence GAAAACUCAAACAGCAUAUTT against V1ri10, the z-score was inactive: -0.036.

Take “GCUAGUUCUCAUCAGCUACTT against 8030463A06Rik”: the z-score is inactive: 1.92.

With GGUUAAUAUUAGCAUCGUCTT against Gm779, the z-score is inactive: 0.219.

As for GGUUUUCAAUGGAGAAGGATT against Zfpn1a2, the z-score was inactive: -1.29.

Consider “GGGAAUCUAAAUUAUUCUGTT against 1200003O06Rik”, for which the z-score is inactive: 2.08.

For GGAGAAAUAUGACAUGGAGTT against Tnni2, the z-score is inactive: -0.218.

With GGAACUCCAUCUUCUGUAATT against Olfr1491, the z-score is inactive: -0.157.

Regarding GCCGCAUUGAGUACAUGGUTT against Ap1m1, the z-score was inactive: 0.652.

With GCGGCAUUGUCUACAUCCATT against Emp3, the z-score is inactive: -0.685.

On to GGGUAACAGUGGUGAACCUTT against Col1a1, for which the z-score is inactive: -1.52.

Consider “CCUGUAUUAAACAGGGUUCTT against 6330516O17Rik”, for which the z-score is inactive: -2.06.

Regarding GCUUAAGAGAUUCAAAUUGTT against Olfr1317, the z-score was inactive: 0.0599.

With GGCCAGUACGAAUGCUCCUTT against Dlk1, the z-score was inactive: -1.78.

Take GCAAUAAUGGCAAGAAUGGTT against AJ430384: the z-score is inactive: -1.27.

In the case of “GGCGGAUUCAACAGACCUCTT against 2610209M04Rik”, the z-score was inactive: -1.92.
